Test results: article PMC8384837
Where a chain is given by its changes, count along the chain named. The list shows a part of the results. For some of these results: At the low end of the ranking the order means little.

Columns and labels:
Conditions in all cases: yeast three-hybrid, YBZ-1, SC-Leu-His + 0.5 mM 3-AT, 4 days
[1] = target: T1, PUM1 PUF domain R2-VFQ R3-THE R4-TFR N899V + Y900F + C935T + R936H + Q939E + N971T + H972F + Q975R (UniProt Q14671)
T1 sequence: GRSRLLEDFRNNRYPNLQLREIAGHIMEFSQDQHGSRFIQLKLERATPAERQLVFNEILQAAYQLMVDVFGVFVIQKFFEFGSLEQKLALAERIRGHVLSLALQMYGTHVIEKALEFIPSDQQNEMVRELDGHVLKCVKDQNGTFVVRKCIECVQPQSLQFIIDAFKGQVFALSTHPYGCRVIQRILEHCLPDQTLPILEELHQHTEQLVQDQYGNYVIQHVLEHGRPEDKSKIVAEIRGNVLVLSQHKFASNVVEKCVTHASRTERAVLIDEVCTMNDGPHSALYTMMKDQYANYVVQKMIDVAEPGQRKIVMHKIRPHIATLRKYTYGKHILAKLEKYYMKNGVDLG

[2] = target: T2, PUM1 PUF domain R4-ACG N971A + H972C + Q975G (UniProt Q14671)
T2 sequence: T1 sequence with V72N, F73Y, T108C, H109R, E112Q, T144A, F145C, R148G

[3] = target: T3, PUM1 PUF domain R4-ACS N971A + H972C + Q975S (UniProt Q14671)
T3 sequence: T1 sequence with V72N, F73Y, T108C, H109R, E112Q, T144A, F145C, R148S

[4] = target: T4, PUM1 PUF domain R4-ALC N971A + H972L + Q975C (UniProt Q14671)
T4 sequence: T1 sequence with V72N, F73Y, T108C, H109R, E112Q, T144A, F145L, R148C

[5] = target: T5, PUM1 PUF domain R4-ALG N971A + H972L + Q975G (UniProt Q14671)
T5 sequence: T1 sequence with V72N, F73Y, T108C, H109R, E112Q, T144A, F145L, R148G

[6] = target: T6, PUM1 PUF domain R4-ALS N971A + H972L + Q975S (UniProt Q14671)
T6 sequence: T1 sequence with V72N, F73Y, T108C, H109R, E112Q, T144A, F145L, R148S

[7] = target: T7, PUM1 PUF domain R4-ALY N971A + H972L + Q975Y (UniProt Q14671)
T7 sequence: T1 sequence with V72N, F73Y, T108C, H109R, E112Q, T144A, F145L, R148Y

[8] = target: T8, PUM1 PUF domain R4-AMA N971A + H972M + Q975A (UniProt Q14671)
T8 sequence: T1 sequence with V72N, F73Y, T108C, H109R, E112Q, T144A, F145M, R148A

[9] = target: T9, PUM1 PUF domain R4-AMC N971A + H972M + Q975C (UniProt Q14671)
T9 sequence: T1 sequence with V72N, F73Y, T108C, H109R, E112Q, T144A, F145M, R148C

[10] = target: T10, PUM1 PUF domain R4-AMV N971A + H972M + Q975V (UniProt Q14671)
T10 sequence: T1 sequence with V72N, F73Y, T108C, H109R, E112Q, T144A, F145M, R148V

[11] = target: T11, PUM1 PUF domain R4-ANC N971A + H972N + Q975C (UniProt Q14671)
T11 sequence: T1 sequence with V72N, F73Y, T108C, H109R, E112Q, T144A, F145N, R148C

[12] = target: T12, PUM1 PUF domain R4-ANL N971A + H972N + Q975L (UniProt Q14671)
T12 sequence: T1 sequence with V72N, F73Y, T108C, H109R, E112Q, T144A, F145N, R148L

[13] = target: T13, PUM1 PUF domain R4-ANS N971A + H972N + Q975S (UniProt Q14671)
T13 sequence: T1 sequence with V72N, F73Y, T108C, H109R, E112Q, T144A, F145N, R148S

[14] = target: T14, PUM1 PUF domain R4-ANY N971A + H972N + Q975Y (UniProt Q14671)
T14 sequence: T1 sequence with V72N, F73Y, T108C, H109R, E112Q, T144A, F145N, R148Y

[15] = target: T15, PUM1 PUF domain R4-APA N971A + H972P + Q975A (UniProt Q14671)
T15 sequence: T1 sequence with V72N, F73Y, T108C, H109R, E112Q, T144A, F145P, R148A

[16] = target: T16, PUM1 PUF domain R4-APC N971A + H972P + Q975C (UniProt Q14671)
T16 sequence: T1 sequence with V72N, F73Y, T108C, H109R, E112Q, T144A, F145P, R148C

[17] = target: T17, PUM1 PUF domain R4-APF N971A + H972P + Q975F (UniProt Q14671)
T17 sequence: T1 sequence with V72N, F73Y, T108C, H109R, E112Q, T144A, F145P, R148F

[18] = target: T18, PUM1 PUF domain R4-APG N971A + H972P + Q975G (UniProt Q14671)
T18 sequence: T1 sequence with V72N, F73Y, T108C, H109R, E112Q, T144A, F145P, R148G

[19] = target: T19, PUM1 PUF domain R4-API N971A + H972P + Q975I (UniProt Q14671)
T19 sequence: T1 sequence with V72N, F73Y, T108C, H109R, E112Q, T144A, F145P, R148I

[20] = target: T20, PUM1 PUF domain R4-APR N971A + H972P + Q975R (Homo sapiens) (UniProt Q14671)
T20 sequence: T1 sequence with V72N, F73Y, T108C, H109R, E112Q, T144A, F145P

[21] = target: T21, PUM1 PUF domain R4-APS N971A + H972P + Q975S (UniProt Q14671)
T21 sequence: T1 sequence with V72N, F73Y, T108C, H109R, E112Q, T144A, F145P, R148S

[22] = target: T22, PUM1 PUF domain R4-AQS N971A + H972Q + Q975S (UniProt Q14671)
T22 sequence: T1 sequence with V72N, F73Y, T108C, H109R, E112Q, T144A, F145Q, R148S

[23] = target: T23, PUM1 PUF domain R4-AQY N971A + H972Q + Q975Y (UniProt Q14671)
T23 sequence: T1 sequence with V72N, F73Y, T108C, H109R, E112Q, T144A, F145Q, R148Y

[24] = target: T24, PUM1 PUF domain R4-ARA N971A + H972R + Q975A (UniProt Q14671)
T24 sequence: T1 sequence with V72N, F73Y, T108C, H109R, E112Q, T144A, F145R, R148A

[25] = target: T25, PUM1 PUF domain R4-ARG N971A + H972R + Q975G (Homo sapiens) (UniProt Q14671)
T25 sequence: T1 sequence with V72N, F73Y, T108C, H109R, E112Q, T144A, F145R, R148G

[26] = target: T26, PUM1 PUF domain R4-ARR N971A + H972R + Q975R (UniProt Q14671)
T26 sequence: T1 sequence with V72N, F73Y, T108C, H109R, E112Q, T144A, F145R

[27] = target: T27, PUM1 PUF domain R4-ARS N971A + H972R + Q975S (UniProt Q14671)
T27 sequence: T1 sequence with V72N, F73Y, T108C, H109R, E112Q, T144A, F145R, R148S

[28] = target: T28, PUM1 PUF domain R4-ARV N971A + H972R + Q975V (Homo sapiens) (UniProt Q14671)
T28 sequence: T1 sequence with V72N, F73Y, T108C, H109R, E112Q, T144A, F145R, R148V

[29] = target: T29, PUM1 PUF domain R4-AWP N971A + H972W + Q975P (UniProt Q14671)
T29 sequence: T1 sequence with V72N, F73Y, T108C, H109R, E112Q, T144A, F145W, R148P

[30] = target: T30, PUM1 PUF domain R4-CCG N971C + H972C + Q975G (UniProt Q14671)
T30 sequence: T1 sequence with V72N, F73Y, T108C, H109R, E112Q, T144C, F145C, R148G

[31] = target: T31, PUM1 PUF domain R4-CCM N971C + H972C + Q975M (UniProt Q14671)
T31 sequence: T1 sequence with V72N, F73Y, T108C, H109R, E112Q, T144C, F145C, R148M

[32] = target: T32, PUM1 PUF domain R4-CFP N971C + H972F + Q975P (UniProt Q14671)
T32 sequence: T1 sequence with V72N, F73Y, T108C, H109R, E112Q, T144C, R148P

[33] = target: T33, PUM1 PUF domain R4-CGC N971C + H972G + Q975C (UniProt Q14671)
T33 sequence: T1 sequence with V72N, F73Y, T108C, H109R, E112Q, T144C, F145G, R148C

[34] = target: T34, PUM1 PUF domain R4-CMC N971C + H972M + Q975C (UniProt Q14671)
T34 sequence: T1 sequence with V72N, F73Y, T108C, H109R, E112Q, T144C, F145M, R148C

[35] = target: T35, PUM1 PUF domain R4-CMG N971C + H972M + Q975G (UniProt Q14671)
T35 sequence: T1 sequence with V72N, F73Y, T108C, H109R, E112Q, T144C, F145M, R148G

[36] = target: T36, PUM1 PUF domain R4-CMS N971C + H972M + Q975S (Homo sapiens) (UniProt Q14671)
T36 sequence: T1 sequence with V72N, F73Y, T108C, H109R, E112Q, T144C, F145M, R148S

[37] = target: T37, PUM1 PUF domain R4-CMV N971C + H972M + Q975V (Homo sapiens) (UniProt Q14671)
T37 sequence: T1 sequence with V72N, F73Y, T108C, H109R, E112Q, T144C, F145M, R148V

GGCUAGAACUAGUGGAUCCCCCGGCGCCCGGCGGCUCGAGCCCGGGUAAGUGUAGAUAGUCUGCAUGCCGCCGGGCGCCAUGCCUGCAGGUCGACUCUAGAAAACAUG
binding signal (log2 enrichment (interaction score)) [1]: -5.6
binding signal (log2 enrichment (interaction score)) [2]: < -7.81
binding signal (log2 enrichment (interaction score)) [3]: < -7.83
binding signal (log2 enrichment (interaction score)) [4]: < -7.11
binding signal (log2 enrichment (interaction score)) [5]: < -8.66
binding signal (log2 enrichment (interaction score)) [6]: < -6.36
binding signal (log2 enrichment (interaction score)) [7]: < -7.25
binding signal (log2 enrichment (interaction score)) [8]: < -5.04
binding signal (log2 enrichment (interaction score)) [9]: < -5.4
binding signal (log2 enrichment (interaction score)) [10]: < -5.65
binding signal (log2 enrichment (interaction score)) [11]: < -5.41
binding signal (log2 enrichment (interaction score)) [12]: < -5.15
binding signal (log2 enrichment (interaction score)) [13]: < -5.6
binding signal (log2 enrichment (interaction score)) [14]: < -6.08
binding signal (log2 enrichment (interaction score)) [15]: < -7.11
binding signal (log2 enrichment (interaction score)) [16]: < -8.15
binding signal (log2 enrichment (interaction score)) [17]: < -7.35
binding signal (log2 enrichment (interaction score)) [18]: < -6.94
binding signal (log2 enrichment (interaction score)) [19]: < -4.97
binding signal (log2 enrichment (interaction score)) [20]: 0.84
binding signal (log2 enrichment (interaction score)) [21]: < -7.52
binding signal (log2 enrichment (interaction score)) [22]: < -5.96
binding signal (log2 enrichment (interaction score)) [23]: < -6.29
binding signal (log2 enrichment (interaction score)) [24]: < -6
binding signal (log2 enrichment (interaction score)) [25]: -4.04
binding signal (log2 enrichment (interaction score)) [26]: < -8.31
binding signal (log2 enrichment (interaction score)) [27]: < -6.57
binding signal (log2 enrichment (interaction score)) [28]: -0.15
binding signal (log2 enrichment (interaction score)) [29]: < -5.7
binding signal (log2 enrichment (interaction score)) [30]: < -6.88
binding signal (log2 enrichment (interaction score)) [31]: < -6.1
binding signal (log2 enrichment (interaction score)) [32]: -3.33
binding signal (log2 enrichment (interaction score)) [33]: < -7.03
binding signal (log2 enrichment (interaction score)) [34]: < -6.29
binding signal (log2 enrichment (interaction score)) [35]: < -6.66
binding signal (log2 enrichment (interaction score)) [36]: -1.17
binding signal (log2 enrichment (interaction score)) [37]: -4.49
